From article PMC4368516 (PLoS Neglected Tropical Diseases, 2015) come the findings set out here.

Amino acid sequences for entries named in this document (tags omitted).
UniProt A0A0B5H0X6, entry or part of it: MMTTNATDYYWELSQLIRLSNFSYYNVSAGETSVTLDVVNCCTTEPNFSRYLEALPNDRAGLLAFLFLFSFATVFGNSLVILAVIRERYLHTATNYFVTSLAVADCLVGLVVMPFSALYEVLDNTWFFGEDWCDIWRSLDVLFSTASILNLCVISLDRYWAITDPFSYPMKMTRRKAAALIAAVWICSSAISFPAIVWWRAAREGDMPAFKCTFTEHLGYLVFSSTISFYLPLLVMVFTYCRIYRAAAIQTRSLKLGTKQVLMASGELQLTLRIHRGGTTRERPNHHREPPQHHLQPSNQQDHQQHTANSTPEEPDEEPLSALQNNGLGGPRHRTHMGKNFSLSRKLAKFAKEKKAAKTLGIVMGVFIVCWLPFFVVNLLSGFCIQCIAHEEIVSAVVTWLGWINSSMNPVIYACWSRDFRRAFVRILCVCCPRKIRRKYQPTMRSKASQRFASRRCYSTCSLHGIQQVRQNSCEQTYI
UniProt P21728, whole entry: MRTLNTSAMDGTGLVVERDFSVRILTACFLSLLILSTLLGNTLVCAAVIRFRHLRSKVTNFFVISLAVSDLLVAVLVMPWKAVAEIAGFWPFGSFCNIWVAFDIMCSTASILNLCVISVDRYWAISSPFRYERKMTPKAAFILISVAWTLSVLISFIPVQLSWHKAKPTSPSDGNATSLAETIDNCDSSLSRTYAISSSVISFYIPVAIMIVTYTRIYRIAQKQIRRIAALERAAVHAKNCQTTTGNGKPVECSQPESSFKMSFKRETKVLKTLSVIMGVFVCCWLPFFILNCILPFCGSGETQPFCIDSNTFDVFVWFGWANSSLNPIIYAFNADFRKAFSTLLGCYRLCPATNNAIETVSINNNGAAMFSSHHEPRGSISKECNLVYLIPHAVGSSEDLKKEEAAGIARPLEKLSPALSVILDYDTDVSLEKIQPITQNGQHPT

In general, IC50 refers to the concentration needed to halve the response being measured.

One test concerns the target CqDOP2 (Culex quinquefasciatus, UniProt A0A0B5H0X6). Kind of test: cell-based.
A further test deals with T1, Human D1 (Homo sapiens, UniProt P21728).
T1 construct: expressed in transfected cells
Kind of test: Inhibition of dopamine-stimulated cAMP response (HTRF) in HEK293 cells expressing human D1. It counts as cell-based. (Time-resolved FRET reads energy transfer from a long-lived donor to a nearby acceptor.)

In a further test the target is T2, AaDOP2 (Aedes aegypti, UniProt H6D5H2).
T2 sequence (H6D5H2 1-476): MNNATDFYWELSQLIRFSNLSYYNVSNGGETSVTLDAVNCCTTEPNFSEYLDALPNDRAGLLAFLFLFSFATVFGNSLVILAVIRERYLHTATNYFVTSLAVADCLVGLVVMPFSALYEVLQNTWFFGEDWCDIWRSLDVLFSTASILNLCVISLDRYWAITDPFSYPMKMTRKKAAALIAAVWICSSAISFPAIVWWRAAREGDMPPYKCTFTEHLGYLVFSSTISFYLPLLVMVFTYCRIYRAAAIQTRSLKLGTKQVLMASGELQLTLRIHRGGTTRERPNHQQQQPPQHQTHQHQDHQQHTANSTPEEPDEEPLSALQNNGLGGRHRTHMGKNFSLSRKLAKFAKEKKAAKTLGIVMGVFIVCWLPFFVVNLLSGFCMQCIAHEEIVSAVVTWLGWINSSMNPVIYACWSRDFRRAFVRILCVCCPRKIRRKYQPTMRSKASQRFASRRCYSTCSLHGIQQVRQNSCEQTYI
Kind of test: cell-based.

Structures can show the parent of a compound that is named as a salt.

For the compound `CN(C)CCC=C1c2ccccc2COc2ccccc21` [Doxepin, doxepin hydrochloride], the values for the IC50 against CqDOP2, against Human D1 and on AaDOP2 were 0.0083 ± 0.0006 µM, 1.89 ± 0.455 µM and 0.017 ± 0.004 µM, respectively.
